Results on one substance are retold here after patent US20060026719A1.

Chains of the proteins cited; added tags and fusions are not shown. Lines headed by an entry give the natural chain unless they say otherwise; changes in a name come on top.
UniProt P01241: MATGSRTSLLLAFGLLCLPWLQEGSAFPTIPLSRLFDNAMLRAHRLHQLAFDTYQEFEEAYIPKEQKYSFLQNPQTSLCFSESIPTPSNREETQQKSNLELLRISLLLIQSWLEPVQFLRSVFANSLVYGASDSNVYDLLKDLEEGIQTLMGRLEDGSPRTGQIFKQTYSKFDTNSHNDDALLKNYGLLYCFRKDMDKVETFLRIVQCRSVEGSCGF

No constants are given. Whether binding was seen depends on the method and setting. Some binding calls cover weakened binding; strength is not graded here.

For the assay, the target named is T1, growth hormone receptor (GHR) on GHR-expressing NIH 3T3-L1 cells (UniProt P16882).
T1 sequence (looked up): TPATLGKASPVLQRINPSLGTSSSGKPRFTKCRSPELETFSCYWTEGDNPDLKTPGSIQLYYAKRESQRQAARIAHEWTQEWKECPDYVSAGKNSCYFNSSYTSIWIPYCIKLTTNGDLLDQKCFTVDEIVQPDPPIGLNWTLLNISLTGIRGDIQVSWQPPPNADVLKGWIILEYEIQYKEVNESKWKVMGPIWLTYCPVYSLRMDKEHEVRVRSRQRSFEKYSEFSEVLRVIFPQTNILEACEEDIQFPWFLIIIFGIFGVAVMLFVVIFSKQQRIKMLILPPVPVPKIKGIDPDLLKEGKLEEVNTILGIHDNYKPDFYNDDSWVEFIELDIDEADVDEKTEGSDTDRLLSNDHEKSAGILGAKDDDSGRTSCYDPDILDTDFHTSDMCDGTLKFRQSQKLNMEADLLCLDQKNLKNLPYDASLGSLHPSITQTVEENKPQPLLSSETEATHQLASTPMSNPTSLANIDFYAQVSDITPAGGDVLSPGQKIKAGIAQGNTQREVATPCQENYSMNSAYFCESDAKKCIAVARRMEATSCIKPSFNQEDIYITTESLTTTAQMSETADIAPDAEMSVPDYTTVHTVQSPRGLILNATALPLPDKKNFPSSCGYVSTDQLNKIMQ
The experiment in a line: radioreceptor competition assay, displacement of [125I]-hGH from GHR-expressing NIH 3T3-L1 cells. For orientation: In a radioligand displacement assay an active substance lowers the binding of a labelled ligand.

As to “commercially available human growth hormone (hGH) (from UniProt P01241 27-217) (ligand)”, the binding entry is given as “binds”.
